{"source": "patent US20080222745A1", "about": "“Colcemid-Treatment of Oocytes to enhance Nuclear Transfer Cloning” (Utah State University, priority 2007, published 2008)", "key": {"[1]": {"tested_on": "bovine NT embryos", "settings": "0.2 and 0.4 μg/ml; 2 to 6 hr; oocytes matured 16-17 hr"}, "[2]": {"tested_on": "MAP kinase (ERK2)", "settings": "0.4 μg/ml colcemid after 15 hr IVM; 18, 20, 22 hours; p<0.05"}, "[3]": {"tested_on": "maturation promoting factor (MPF)"}, "[4]": {"tested_on": "bovine oocytes"}}, "note": "Read-outs that look alike come from different tables or passages of the source."}
{"smiles": "CN[C@H]1CCc2cc(OC)c(OC)c(OC)c2-c2ccc(OC)c(=O)cc21", "note": "[colcemid, N-deacetyl-N-methylcolchicine]", "values": [{"measurement": "effect of colcemid concentration and treatment time on NT embryo development to blastocyst and hatching blastocyst stages", "setting": "[1]", "value": "did not affect"}, {"measurement": "relative activity of MAP kinase, colcemid treated vs control oocytes", "setting": "[2]", "value": "significantly different"}, {"measurement": "relative mean MPF activity vs oocytes matured without colcemid", "setting": "[3]; 0.4 μg/ml colcemid after 15 hr IVM, p<0.0001", "value": "significantly higher"}, {"measurement": "MPF activity vs every other time and treatment combination", "setting": "[3]; colcemid treated oocytes matured for 22 hrs", "value": "significantly higher"}, {"measurement": "No. of Oocytes Responding to electroporation with IP3", "setting": "[4]; 18 hr maturation, 3 hr colcemid (0.4 μg/ml), 9 oocytes tested", "value": 7}, {"measurement": "No. of Oocytes Responding to electroporation with IP3", "setting": "[4]; 20 hr maturation, 5 hr colcemid (0.4 μg/ml), 9 oocytes tested", "value": 9}, {"measurement": "No. of Oocytes Responding to electroporation with IP3", "setting": "[4]; 22 hr maturation, 7 hr colcemid (0.4 μg/ml), 10 oocytes tested", "value": 10}]}
